Results are given in words; binding and its absence hold for the method and conditions named. In cells and extracts the contact can be indirect. Some entries that bind do so weakly or less than the wild type. Sequences can lack the tags named with a protein.
Columns and labels:
Test in all cases: co-IP; 293T cells co-transfected with Myc-Mib2 and a tagged IKK subunit; lysis in 50 mM Tris-HCl pH 7.4, 150 mM NaCl, 1% Triton X-100; immunoprecipitation with Flag or HA antibody-conjugated beads at 4 °C for 2 h; Myc-Mib2 detected by Western blot
Flag-tagged IKKγ = Flag-tagged IKKγ (UniProt O88522)
Flag-tagged IKKα = target: T1, Flag-tagged IKKα (UniProt Q60680)
T1 sequence: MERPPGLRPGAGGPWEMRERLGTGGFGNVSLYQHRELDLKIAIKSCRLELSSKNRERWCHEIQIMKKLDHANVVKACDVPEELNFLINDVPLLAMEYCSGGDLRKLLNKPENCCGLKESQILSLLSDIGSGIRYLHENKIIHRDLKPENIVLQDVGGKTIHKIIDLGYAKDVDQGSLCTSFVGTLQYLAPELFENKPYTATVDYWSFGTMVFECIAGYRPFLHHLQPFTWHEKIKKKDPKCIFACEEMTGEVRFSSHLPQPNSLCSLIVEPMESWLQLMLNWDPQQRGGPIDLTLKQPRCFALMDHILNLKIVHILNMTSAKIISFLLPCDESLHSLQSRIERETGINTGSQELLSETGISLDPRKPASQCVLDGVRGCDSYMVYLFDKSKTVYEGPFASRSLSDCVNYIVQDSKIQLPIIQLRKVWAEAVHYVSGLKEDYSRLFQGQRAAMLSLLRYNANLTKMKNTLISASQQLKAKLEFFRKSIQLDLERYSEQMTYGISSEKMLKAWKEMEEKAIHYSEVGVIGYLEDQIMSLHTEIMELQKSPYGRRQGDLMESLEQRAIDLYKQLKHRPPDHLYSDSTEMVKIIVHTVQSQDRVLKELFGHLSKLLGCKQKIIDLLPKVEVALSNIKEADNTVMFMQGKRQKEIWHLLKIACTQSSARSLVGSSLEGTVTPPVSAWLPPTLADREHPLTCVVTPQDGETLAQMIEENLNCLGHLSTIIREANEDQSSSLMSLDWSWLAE

The chains behind the UniProt entries cited, without tags or fusion partners.
UniProt O88522: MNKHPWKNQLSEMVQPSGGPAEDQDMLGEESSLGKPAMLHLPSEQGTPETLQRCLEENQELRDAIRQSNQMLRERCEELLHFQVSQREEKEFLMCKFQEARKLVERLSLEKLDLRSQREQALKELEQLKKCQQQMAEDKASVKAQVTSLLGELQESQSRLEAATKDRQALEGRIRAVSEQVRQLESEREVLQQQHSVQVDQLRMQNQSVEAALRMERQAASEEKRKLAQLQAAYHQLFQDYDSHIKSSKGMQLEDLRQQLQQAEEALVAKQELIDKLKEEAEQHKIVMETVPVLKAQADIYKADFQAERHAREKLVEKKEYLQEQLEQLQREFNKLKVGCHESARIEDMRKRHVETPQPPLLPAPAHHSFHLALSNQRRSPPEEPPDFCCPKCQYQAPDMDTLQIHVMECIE

HA-tagged IKKβ = target: T2, HA-tagged IKKβ (UniProt O88351)
T2 sequence: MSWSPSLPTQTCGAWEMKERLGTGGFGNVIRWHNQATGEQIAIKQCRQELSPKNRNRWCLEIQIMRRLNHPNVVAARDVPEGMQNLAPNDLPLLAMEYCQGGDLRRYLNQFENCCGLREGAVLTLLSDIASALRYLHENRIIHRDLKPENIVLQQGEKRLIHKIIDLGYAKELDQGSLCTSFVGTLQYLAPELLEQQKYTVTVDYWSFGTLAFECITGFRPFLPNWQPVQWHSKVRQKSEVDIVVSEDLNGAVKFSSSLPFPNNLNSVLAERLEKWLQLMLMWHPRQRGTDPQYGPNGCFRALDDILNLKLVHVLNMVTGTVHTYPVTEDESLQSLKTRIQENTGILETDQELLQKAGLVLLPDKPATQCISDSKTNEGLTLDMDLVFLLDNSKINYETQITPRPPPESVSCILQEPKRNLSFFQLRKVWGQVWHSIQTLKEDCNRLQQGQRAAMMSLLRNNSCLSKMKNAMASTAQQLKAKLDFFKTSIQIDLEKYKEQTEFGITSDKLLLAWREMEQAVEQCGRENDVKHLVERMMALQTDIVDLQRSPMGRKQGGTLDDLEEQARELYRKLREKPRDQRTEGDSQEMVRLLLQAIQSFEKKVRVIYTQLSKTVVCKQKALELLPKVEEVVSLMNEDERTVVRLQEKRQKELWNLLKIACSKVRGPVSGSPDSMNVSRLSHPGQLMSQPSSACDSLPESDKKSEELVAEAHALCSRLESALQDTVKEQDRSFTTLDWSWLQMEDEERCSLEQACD

binding (Flag-tagged IKKγ): binds
binding (Flag-tagged IKKα): binds
binding (HA-tagged IKKβ): binds
B1: Myc-tagged Mib2 (Mind bomb-2) (enzyme, UniProt Q8R516 1-973)
chain: MDLDPHAGVQVGMRVVRGMDWKWGQQDGGEGGVGTVVELGRHGSPSTPDRTVVVQWDQGTRTNYRAGYQGAHDLLLYDNAQIGIRHPNIICDCCKKHGLRGMRWKCRVCFDYDLCTQCYMHNKHDLTHAFERYETSHSRPVTLSPRQGLPRIPLRGIFQGAKVVRGPDWEWGSQDGGEGKTGRVVDIRGWDVETGRSVASVTWADGTTNVYRVGHKGKVDLRCVGEAAGGFYYKEHLPKLGKPAELQRRVSADGQPFQRGDKVKCLLDTDVLRDMQEGHGGWNPRMAEFIGQMGTVHRITDRGDVRVQFNHETRWTFHPGALTKHNSFWVGDVVRVIGDLDTVKRLQAGHGEWTDDMAPALGRVGKVVKVFGDGNLRVAVGGQRWTFSPSCLVAYRPEEDANLDVAERARENKSAASVSVAGSLSVALDKLRTQKSDPEHPGRLVVEAALGNVARALDLLRRHPEQASYHPALVVDTKNQGRTALQVAAYLGQVELVRLLLQARASMDLPDDEGNTVLHYTAMGNQPEATRVLLSAGCAVDARNGTRSTALHVAVQRGFLEVVKILCERGCDVNLPDAHADTPLHSAISAGAGASSIVEVLTEVPGIDVTATNSQGFTLLHHASLKGHVLAVRKILARARQLVDAKKEDGFTALHLAALNNHREVAQVLIREGRCDVNVRNRKLQSPLHLAVQQAHLGLVPLLVDAGCSVNTEDEEGDTALHVALQRHQLLPLVADRAGGDPGPLQLLSRLQASGLPGCTELTVGAAVACFLALEGADVSYANHRGRSPLDLATEGRVLKALQGCAQRFRERQAGGGGGVPPGPRHVLSTPNTVTNLHVSGTAGPEAAECLVCSELALLILFSPCQHRTVCEECARRMKKCIRCQVVISKKLRPDGSEVVNAIQVPGPPRQLVEELQSRYRQMEERITCPICIDSHIRLVFQCGHGACAPCGAALNACPICRQPIRDRIQIFV

— article PMC7220279
